Results published in article PMC2642629.
Results are given in words; binding and its absence hold for the method and conditions named. In cells and extracts the contact can be indirect. Some binding calls cover weakened binding; strength is not graded here. Sequences can lack the tags named with a protein.

T1: O-linked β-N-acetylglucosamine transferase (rat (endogenous in RINm5F)) (UniProt P56558)
T1 sequence: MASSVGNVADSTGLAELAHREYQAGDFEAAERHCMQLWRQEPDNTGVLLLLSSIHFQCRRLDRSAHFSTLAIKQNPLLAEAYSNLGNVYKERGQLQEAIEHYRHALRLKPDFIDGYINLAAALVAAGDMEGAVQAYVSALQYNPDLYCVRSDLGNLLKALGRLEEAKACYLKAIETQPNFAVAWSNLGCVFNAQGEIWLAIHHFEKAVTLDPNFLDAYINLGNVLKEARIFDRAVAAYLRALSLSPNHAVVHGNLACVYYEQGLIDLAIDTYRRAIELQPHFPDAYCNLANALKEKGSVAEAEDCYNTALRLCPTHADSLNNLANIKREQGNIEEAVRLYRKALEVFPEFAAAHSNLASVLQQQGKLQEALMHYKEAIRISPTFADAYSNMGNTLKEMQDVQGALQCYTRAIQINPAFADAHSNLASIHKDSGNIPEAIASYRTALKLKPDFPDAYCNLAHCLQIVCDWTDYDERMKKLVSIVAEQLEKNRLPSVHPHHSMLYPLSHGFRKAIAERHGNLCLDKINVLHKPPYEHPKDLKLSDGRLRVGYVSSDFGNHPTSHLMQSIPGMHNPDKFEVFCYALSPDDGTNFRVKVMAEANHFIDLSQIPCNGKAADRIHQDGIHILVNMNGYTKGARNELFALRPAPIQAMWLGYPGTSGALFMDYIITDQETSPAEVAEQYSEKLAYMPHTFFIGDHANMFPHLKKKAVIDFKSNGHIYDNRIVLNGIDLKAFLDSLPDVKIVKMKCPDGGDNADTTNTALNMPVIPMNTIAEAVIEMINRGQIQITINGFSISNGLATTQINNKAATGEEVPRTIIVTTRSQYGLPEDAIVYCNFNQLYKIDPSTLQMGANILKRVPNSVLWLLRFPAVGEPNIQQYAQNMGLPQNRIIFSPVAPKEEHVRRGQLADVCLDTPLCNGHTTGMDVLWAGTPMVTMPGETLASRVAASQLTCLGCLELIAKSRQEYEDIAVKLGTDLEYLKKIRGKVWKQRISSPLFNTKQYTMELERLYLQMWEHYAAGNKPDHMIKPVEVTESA

T2: Prohibitin (rat (endogenous in RINm5F)) (UniProt P67779)
T2 sequence: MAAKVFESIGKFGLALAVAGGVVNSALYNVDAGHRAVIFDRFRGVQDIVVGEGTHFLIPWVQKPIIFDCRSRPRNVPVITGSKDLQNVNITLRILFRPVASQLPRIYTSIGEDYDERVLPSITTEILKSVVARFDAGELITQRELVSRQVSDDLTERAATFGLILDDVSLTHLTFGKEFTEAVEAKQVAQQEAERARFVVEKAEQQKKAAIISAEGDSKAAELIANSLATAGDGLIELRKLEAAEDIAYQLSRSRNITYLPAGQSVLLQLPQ


Assays:
[1] = target: T1, O-linked β-N-acetylglucosamine transferase (rat (endogenous in RINm5F)); test: co-IP; RINm5F cells without insulin treatment; lysate incubated overnight at 4°C with rabbit polyclonal anti-PHB or monoclonal anti-OGT antibody, Dynabeads Protein A, washed 5x in ice cold PBS; immunoblot with the respective antibodies
[2] = target: T1, O-linked β-N-acetylglucosamine transferase (rat (endogenous in RINm5F)); test: co-IP; RINm5F cells treated with insulin (100 nM); lysate incubated overnight at 4°C with rabbit polyclonal anti-PHB or monoclonal anti-OGT antibody, Dynabeads Protein A, washed 5x in ice cold PBS; immunoblot with the respective antibodies
[3] = target: T2, Prohibitin (rat (endogenous in RINm5F)); test: as above

| binding [1] | binding [2] | binding [3] | Binder |
| --- | --- | --- | --- |
| binds weakly | binds | – | Prohibitin (protein, UniProt P67779 1-272) MAAKVFESIGKFGLALAVAGGVVNSALYNVDAGHRAVIFDRFRGVQDIVVGEGTHFLIPWVQKPIIFDCRSRPRNVPVITGSKDLQNVNITLRILFRPVASQLPRIYTSIGEDYDERVLPSITTEILKSVVARFDAGELITQRELVSRQVSDDLTERAATFGLILDDVSLTHLTFGKEFTEAVEAKQVAQQEAERARFVVEKAEQQKKAAIISAEGDSKAAELIANSLATAGDGLIELRKLEAAEDIAYQLSRSRNITYLPAGQSVLLQLPQ |
| – | – | binds | O-linked β-N-acetylglucosamine transferase (enzyme, UniProt P56558 1-1036) MASSVGNVADSTGLAELAHREYQAGDFEAAERHCMQLWRQEPDNTGVLLLLSSIHFQCRRLDRSAHFSTLAIKQNPLLAEAYSNLGNVYKERGQLQEAIEHYRHALRLKPDFIDGYINLAAALVAAGDMEGAVQAYVSALQYNPDLYCVRSDLGNLLKALGRLEEAKACYLKAIETQPNFAVAWSNLGCVFNAQGEIWLAIHHFEKAVTLDPNFLDAYINLGNVLKEARIFDRAVAAYLRALSLSPNHAVVHGNLACVYYEQGLIDLAIDTYRRAIELQPHFPDAYCNLANALKEKGSVAEAEDCYNTALRLCPTHADSLNNLANIKREQGNIEEAVRLYRKALEVFPEFAAAHSNLASVLQQQGKLQEALMHYKEAIRISPTFADAYSNMGNTLKEMQDVQGALQCYTRAIQINPAFADAHSNLASIHKDSGNIPEAIASYRTALKLKPDFPDAYCNLAHCLQIVCDWTDYDERMKKLVSIVAEQLEKNRLPSVHPHHSMLYPLSHGFRKAIAERHGNLCLDKINVLHKPPYEHPKDLKLSDGRLRVGYVSSDFGNHPTSHLMQSIPGMHNPDKFEVFCYALSPDDGTNFRVKVMAEANHFIDLSQIPCNGKAADRIHQDGIHILVNMNGYTKGARNELFALRPAPIQAMWLGYPGTSGALFMDYIITDQETSPAEVAEQYSEKLAYMPHTFFIGDHANMFPHLKKKAVIDFKSNGHIYDNRIVLNGIDLKAFLDSLPDVKIVKMKCPDGGDNADTTNTALNMPVIPMNTIAEAVIEMINRGQIQITINGFSISNGLATTQINNKAATGEEVPRTIIVTTRSQYGLPEDAIVYCNFNQLYKIDPSTLQMGANILKRVPNSVLWLLRFPAVGEPNIQQYAQNMGLPQNRIIFSPVAPKEEHVRRGQLADVCLDTPLCNGHTTGMDVLWAGTPMVTMPGETLASRVAASQLTCLGCLELIAKSRQEYEDIAVKLGTDLEYLKKIRGKVWKQRISSPLFNTKQYTMELERLYLQMWEHYAAGNKPDHMIKPVEVTESA |
